Our source for the binding values is paper doi:10.1101/2024.07.29.603210.

Sequences of proteins named here, by UniProt entry; tags and fusion partners are left off.
UniProt Q99KN2: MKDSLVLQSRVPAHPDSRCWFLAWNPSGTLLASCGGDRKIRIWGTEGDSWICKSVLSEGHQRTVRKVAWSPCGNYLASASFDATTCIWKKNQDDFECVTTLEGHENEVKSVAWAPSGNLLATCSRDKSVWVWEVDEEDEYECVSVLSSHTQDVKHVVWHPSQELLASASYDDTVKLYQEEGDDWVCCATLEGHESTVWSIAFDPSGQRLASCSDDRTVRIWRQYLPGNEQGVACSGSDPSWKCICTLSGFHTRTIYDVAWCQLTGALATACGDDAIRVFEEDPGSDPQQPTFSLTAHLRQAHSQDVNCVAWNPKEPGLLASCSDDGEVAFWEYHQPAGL

Read-outs that look alike come from different tables or passages of the source. No constants are given. Whether binding was seen depends on the method and setting. In cells and extracts the contact can be indirect. A yes stands for co-enrichment or nearness to the bait. Other partners may have been found. Tags and fused reporters may be left off the sequences shown.

Experiment [1] deals with T1, mitoNEET tagged with HA in its C-terminus (mouse, full length) (mouse) (UniProt Q91WS0).
T1 sequence: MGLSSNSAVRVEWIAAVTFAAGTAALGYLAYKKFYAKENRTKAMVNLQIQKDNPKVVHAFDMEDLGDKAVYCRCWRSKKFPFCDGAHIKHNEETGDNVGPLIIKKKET
The experiment can be described thus: affinity purification with mass spectrometry.

For experiment [2], the target named is T1, mitoNEET tagged with HA in its C-terminus (mouse, full length) (mouse). The experiment can be described thus: affinity purification with mass spectrometry. The source holds these as a separate data set.

Consider Ciao1 (from UniProt Q99KN2 1-339), for which the binding entry in experiment [1] is “binds”.

B1: prohibitin (protein, UniProt P67778 1-272)
chain: MAAKVFESIGKFGLALAVAGGVVNSALYNVDAGHRAVIFDRFRGVQDIVVGEGTHFLIPWVQKPIIFDCRSRPRNVPVITGSKDLQNVNITLRILFRPVASQLPRIYTSIGEDYDERVLPSITTEILKSVVARFDAGELITQRELVSRQVSDDLTERAATFGLILDDVSLTHLTFGKEFTEAVEAKQVAQQEAERARFVVEKAEQQKKAAIISAEGDSKAAELIANSLATAGDGLIELRKLEAAEDIAYQLSRSRNITYLPAGQSVLLQLPQ
Turning to B1, the binding entry in experiment [2] is given as “binds”.
